# PubChem BioAssay AID1159578, Peter MacCallum Cancer Centre, 2015
# Screen: 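Knock-downs that alter how fast lymphatic endothelial cells migrate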 (primary screen)
# System: human lymphatic endothelial cells
# Reagent: siRNA pool against human genes, 40 nM
# Timing: 48 h after transfection
# Measured: 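High-content imaging of dye-stained cells in a scratch assay measures filled wound area and nuclei per well; duplicate means given as ratio to mock and robust z-score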
# Reading the numbers: migration robust z-score: higher = faster migration into the scratch; nuclei per well: higher = more cells in the well
# Active means: 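Migration changed when robust z exceeds 2 or falls below -2 and mean nuclei number is at least 3300; otherwise not called changed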
# Calls: active = migration changed; inactive = no migration change, or too few cells
# In all, the deposit lists about 18,000 reagents; below is a part drawn at random. Over the whole deposit, about 1,030 (5.7%) are marked active. 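Inactive calls also include pools with fewer than 3300 nuclei, whose migration was not assessed.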 Raw values vary from plate to plate and are shown uncorrected. Entries without a mark were called inactive. The numbers tell different reagents against one gene apart. Further read-outs or replicates are left out here.
The opening 2 entries, ahead of the listing:
gene knocked down,reagent no.,migration robust z-score,migration class with cell-count check,"nuclei per well, duplicate mean"
AURKA (aurora kinase A),1,-1.56,migration z between -2 and 2; enough cells,3686
FAN1 (FANCD2 and FANCI associated nuclease 1),1,-0.64,migration z between -2 and 2; enough cells,5852

The list itself, from the first entry:
gene knocked down,reagent no.,migration robust z-score,migration class with cell-count check,"nuclei per well, duplicate mean"
AURKA (aurora kinase A),1,-1.56,migration z between -2 and 2; enough cells,3686
FAN1 (FANCD2 and FANCI associated nuclease 1),1,-0.64,migration z between -2 and 2; enough cells,5852
CLVS1 (clavesin 1),1,-0.67,migration z between -2 and 2; enough cells,5741
ZC3H4 (zinc finger CCCH-type containing 4),1,2.27 (active),migration z above 2; enough cells,5852
SH3PXD2B (SH3 and PX domains 2B),1,1.1,migration z between -2 and 2; enough cells,6179
MAGEC3 (MAGE family member C3),1,0.16,migration z between -2 and 2; enough cells,5576
L3MBTL2 (L3MBTL histone methyl-lysine binding protein 2),1,1.33,migration z between -2 and 2; enough cells,6554
TSSK4 (testis specific serine kinase 4),1,0.55,migration z between -2 and 2; enough cells,5602
CTCF (CCCTC-binding factor),1,0.31,migration z between -2 and 2; enough cells,4979
KHDRBS1,1,0.56,migration z between -2 and 2; enough cells,7408
GIPC2 (GIPC PDZ domain containing family member 2),1,0.73,migration z between -2 and 2; enough cells,5528
DENND10P1 (DENND10 pseudogene 1),1,-1.48,migration z between -2 and 2; enough cells,5794
CGREF1 (cell growth regulator with EF-hand domain 1),1,-1.52,migration z between -2 and 2; enough cells,5814
TNFRSF14 (TNF receptor superfamily member 14),1,0.43,migration z between -2 and 2; enough cells,8352
ALYREF (Aly/REF export factor),1,-0.46,migration z between -2 and 2; enough cells,5380
SEPTIN4 (septin 4),1,-2.54 (active),migration z below -2; enough cells,3942
SEPTIN4 (septin 4),2,1.52,migration z between -2 and 2; enough cells,5676
LCE3D (late cornified envelope 3D),1,-0.84,migration z between -2 and 2; enough cells,4322
GPM6A (glycoprotein M6A),1,-1.22,migration z between -2 and 2; enough cells,6526
TMEM160 (transmembrane protein 160),1,0.78,migration z between -2 and 2; enough cells,5036
RASAL2 (RAS protein activator like 2),1,-0.98,migration z between -2 and 2; enough cells,4960
DLEC1 (DLEC1 cilia and flagella associated protein),1,0.28,migration z between -2 and 2; enough cells,3984
FEZ1 (fasciculation and elongation protein zeta 1),1,-0.52,migration z between -2 and 2; enough cells,5838
ZNF385B (zinc finger protein 385B),1,-1.38,migration z between -2 and 2; enough cells,4286
FBXO38 (F-box protein 38),1,-0.62,migration z between -2 and 2; enough cells,5724
TSPAN2 (tetraspanin 2),1,-4.32,under 3300 nuclei; migration not judged,2863
LRRC63 (leucine rich repeat containing 63),1,0.4,migration z between -2 and 2; enough cells,5508
SH3PXD2A (SH3 and PX domains 2A),1,1.2,migration z between -2 and 2; enough cells,6309
DZIP1 (DAZ interacting zinc finger protein 1),1,1.5,migration z between -2 and 2; enough cells,6168
IFT70B (intraflagellar transport 70B),1,-0.72,migration z between -2 and 2; enough cells,5677
MBD6 (methyl-CpG binding domain protein 6),1,0.85,migration z between -2 and 2; enough cells,6726
SCN2B (sodium voltage-gated channel beta subunit 2),1,-0.73,migration z between -2 and 2; enough cells,4158
ZNF622 (zinc finger protein 622),1,-0.78,migration z between -2 and 2; enough cells,4860
RING1 (ring finger protein 1),1,-0.75,migration z between -2 and 2; enough cells,4744
CFHR1 (complement factor H related 1),1,1.09,migration z between -2 and 2; enough cells,6304
GAGE4 (G antigen 4),1,-0.78,migration z between -2 and 2; enough cells,5496
FGG (fibrinogen gamma chain),1,1.38,migration z between -2 and 2; enough cells,5980
ECE1 (endothelin converting enzyme 1),1,1.61,migration z between -2 and 2; enough cells,4312
MIPOL1 (mirror-image polydactyly 1),1,-0.98,migration z between -2 and 2; enough cells,4900
